The list shows a part of the results.

By UniProt entry, the sequences of proteins in these tests, tags left out.
UniProt Q0JBA9, entry or part of it: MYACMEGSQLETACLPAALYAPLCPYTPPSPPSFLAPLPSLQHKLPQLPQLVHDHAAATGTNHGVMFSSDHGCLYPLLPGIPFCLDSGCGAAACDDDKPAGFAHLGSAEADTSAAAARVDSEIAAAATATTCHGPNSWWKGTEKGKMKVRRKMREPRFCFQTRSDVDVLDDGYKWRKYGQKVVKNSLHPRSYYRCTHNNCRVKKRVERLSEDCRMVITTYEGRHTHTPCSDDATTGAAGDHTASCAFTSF

Experimental findings from paper PMC7819943, “Rice protein-binding microarrays: a tool to detect cis-acting elements near promoter regions in rice” are described below.

The assay concerns the target OsWRKY34 (Oryza sativa, UniProt Q0JBA9 1-250). The assay is described as follows: protein-binding microarray (RPBM); PBS, 2% BSA, 51.3 ng/ul salmon testes DNA, 50 uM zinc acetate, 200 nM TF, 25 C, 1 h; high values mean tight binding. The conditions noted are these: protein: recombinant; tags: N-terminal polyhistidine and DsRed monomer fusion (pET32a); label: CyDye5-dUTP incorporated in the synthesized complementary strand; 3' TTTTT single-stranded linker to array surface; dsDNA, one strand shown. The method in brief:
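In PBS with 2% BSA, salmon testes DNA and 50 µM zinc acetate, 200 nM protein was incubated on a custom Agilent array at 25 °C for 1 h and then washed off. The array had been made double-stranded by primer extension with Cy5-dUTP and blocked with 2% BSA. The proteins were transcription factors fused N-terminally to polyhistidine and DsRed, expressed in E. coli BL21-CodonPlus and purified on Ni–NTA. The binding signal is per-feature fluorescence intensity (arbitrary units) from an Axon 4000B scanner.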
For “TTCACTGACAGGGGAGCATGGGGTGTGTGCTTATATAAACCGGAGTCACCTAGTGCAG”, the binding signal was 9130 fluorescence intensity (a.u.).

Turning to “CATGTTAATTTGGGACGAGAGTCGGACTCCTATTTCCTTTCGGAGTCACCTAGTGCAG”, the binding signal is 8950 fluorescence intensity (a.u.).

With “TTCTCTATCTGGGCGTGTATTACTGTTTCCTTTCCCGATACGGAGTCACCTAGTGCAG”, the binding signal is 9170 fluorescence intensity (a.u.).

Take “AATTTCTTACTGTACTTGTCATTCCCGGCCCGGATTGAATCGGAGTCACCTAGTGCAG”: the binding signal was 9980 fluorescence intensity (a.u.).

Consider “TAGAATCTACACTTGTTCATATCTATGCTTGTTCGTCAGTCGGAGTCACCTAGTGCAG”, for which the binding signal is 8860 fluorescence intensity (a.u.).

“GCTGTCCTTGTCTTCTTTTTCTTTTTTTTTTTCCCTCCTGCGGAGTCACCTAGTGCAG”: the binding signal is 10600 fluorescence intensity (a.u.).

Turning to “AATTTACATTGTAGTTACACCTCACTAACACACTATTTACCGGAGTCACCTAGTGCAG”, the binding signal is 8170 fluorescence intensity (a.u.).

Regarding “GAACCCTAGGCTGTCGCGGATCCATCCCATCCCATCTCTTCGGAGTCACCTAGTGCAG”, the binding signal is 9620 fluorescence intensity (a.u.).

As for “CGTACATTTTATATTGATGTATTTCCTCCTACATGCGTCTCGGAGTCACCTAGTGCAG”, the binding signal is 12100 fluorescence intensity (a.u.).

In the case of “TGCCACCGCCGCCGCCAAGTTCCCGAGCAATTTTCCTGGCCGGAGTCACCTAGTGCAG”, the binding signal is 8030 fluorescence intensity (a.u.).

Regarding “CGTTCTCTTCTAGTACTCCTCGTCTCTCTCCGTAGTCCGTCGGAGTCACCTAGTGCAG”, the binding signal was 10900 fluorescence intensity (a.u.).

Consider “TCTTAGGGCTAAACCACACAATAGCAGTGTTCTGTAGCAACGGAGTCACCTAGTGCAG”, for which the binding signal was 8550 fluorescence intensity (a.u.).

For “GCACGCATGCAGTTCCTTGACCAATTCTCACATCAACCACCGGAGTCACCTAGTGCAG”, the binding signal is 9100 fluorescence intensity (a.u.).

Take “ACCAATGTGCCATCCCTTCGTCTTTCTGTACTCCTTTTGACGGAGTCACCTAGTGCAG”: the binding signal is 9730 fluorescence intensity (a.u.).

With “ACTCTCTTATATCCAAATTCGTTGTGTTATGATATATCACCGGAGTCACCTAGTGCAG”, the binding signal is 8530 fluorescence intensity (a.u.).

Take “GCCTGCACAAAGGGGATTGGTCTTTGTCTTTGCAGATTTCCGGAGTCACCTAGTGCAG”: the binding signal was 10200 fluorescence intensity (a.u.).

On to “CATTAGACCCTGAGGTTTTTGACTAGGCAGCCCACTTGTCCGGAGTCACCTAGTGCAG”, for which the binding signal was 9040 fluorescence intensity (a.u.).

For the sequence “TTCGATTTAGCTGCTTTCTTATCTTTTTCGTTAGCACATACGGAGTCACCTAGTGCAG”, the binding signal was 10700 fluorescence intensity (a.u.).

Turning to “TTATGGCGTGTCAAACTTTCTTCCCATGGCTTTTTTGCCACGGAGTCACCTAGTGCAG”, the binding signal is 9970 fluorescence intensity (a.u.).

On to “CTAATGGTTCTGATCGCCGTGCCTAACCCTAGCCCCATATCGGAGTCACCTAGTGCAG”, for which the binding signal was 8400 fluorescence intensity (a.u.).

In the case of “ATATGCGATTTTCTTGTTGGGTTTAAACTTTTTTTAATAACGGAGTCACCTAGTGCAG”, the binding signal is 11200 fluorescence intensity (a.u.).

As for “GGCACCGGAGAACTCCCCTGTCCTCCTGGCCGTCCGCGCGCGGAGTCACCTAGTGCAG”, the binding signal was 8600 fluorescence intensity (a.u.).

As to “TCTCTCTCTCTCTCTCTCTCTCTCTCTGCACGCGCGCGTGCGGAGTCACCTAGTGCAG”, the binding signal was 8020 fluorescence intensity (a.u.).

In the case of “TTGAAATTTTCTCACTTTTAATCATTTTTCTCCATGTTTGCGGAGTCACCTAGTGCAG”, the binding signal was 8690 fluorescence intensity (a.u.).

Turning to “GAACGGACTAAAGCCCAACATGGACTCCTACATACCGATCCGGAGTCACCTAGTGCAG”, the binding signal was 8360 fluorescence intensity (a.u.).

In the case of “ACGGCTCGGCATGCGGCGAAAAAAGCGGCGGCGCTCCGCCCGGAGTCACCTAGTGCAG”, the binding signal was 10200 fluorescence intensity (a.u.).

Turning to “TAAGGCTGCTATATTTTGGGACGGAGGGTGTGCTCTGCTTCGGAGTCACCTAGTGCAG”, the binding signal is 8750 fluorescence intensity (a.u.).

Regarding “AAAATTCTTGTGGGTGCTGTATTGTTGTTGTTGCTGCTGCCGGAGTCACCTAGTGCAG”, the binding signal was 11000 fluorescence intensity (a.u.).

Consider “TTATGGGTATGTCACCAGGGGTTTAATCTTTCATTTTCAACGGAGTCACCTAGTGCAG”, for which the binding signal was 12300 fluorescence intensity (a.u.).

Consider “TCTGATTTCACTATTGCGTAGCTTTCATCCGCATGATTACCGGAGTCACCTAGTGCAG”, for which the binding signal is 8020 fluorescence intensity (a.u.).

For the sequence “GATCCTCTGCTGTATTATCCCTATATTGAAAGTCACTGACCGGAGTCACCTAGTGCAG”, the binding signal is 8580 fluorescence intensity (a.u.).

In the case of “TTCACCCCGCTGCTCCGACGTCCTAGCCATCGCCGCCGCCCGGAGTCACCTAGTGCAG”, the binding signal is 8600 fluorescence intensity (a.u.).

Regarding “GTTGTTTGGTTGCTTGCATGAGAAAGTGTGGCACATGATCCGGAGTCACCTAGTGCAG”, the binding signal is 8660 fluorescence intensity (a.u.).

As for “ACGTGTACGGCGCGGGGTGGAGGTGAGGGGTGGTGGGGCCCGGAGTCACCTAGTGCAG”, the binding signal is 18000 fluorescence intensity (a.u.).

Take “ATTAAATTCCTTTCTGCCCATTTTTCGTCAAAGAAACGCACGGAGTCACCTAGTGCAG”: the binding signal was 10600 fluorescence intensity (a.u.).

Consider “TTTTGTCTGCTTCATGTAACCTATGGATTTCGCTGTCCAACGGAGTCACCTAGTGCAG”, for which the binding signal is 9260 fluorescence intensity (a.u.).

“GGCGCCTTTTTGACTATTGACATTTGTATTCATTAGGTTTCGGAGTCACCTAGTGCAG”: the binding signal was 8160 fluorescence intensity (a.u.).

For “TCATCATCATCATCAGCTGACAAGTTCACTAAGCCCACAACGGAGTCACCTAGTGCAG”, the binding signal was 10700 fluorescence intensity (a.u.).

Take “GCAGTTTGTACTTTCAAGTGATTGTCTCAGCTCTGGATGACGGAGTCACCTAGTGCAG”: the binding signal was 9110 fluorescence intensity (a.u.).

With “CTCGCCGCATCCACGCCGTCCCTTTTAATCCACCCGTCTCCGGAGTCACCTAGTGCAG”, the binding signal was 10500 fluorescence intensity (a.u.).

“TTATCATGTTTGCTATGTCGACATAGATTTGGTCCTGACACGGAGTCACCTAGTGCAG”: the binding signal was 8970 fluorescence intensity (a.u.).

As for “TTTTCTACAGCGCTGCTATAGCTACTTGTCAGCTGATGTACGGAGTCACCTAGTGCAG”, the binding signal was 8180 fluorescence intensity (a.u.).
